Experimental data: PubChem BioAssay AID493246 (Drosophila RNAi Screening Center, 2011)
The deposit covers about 21,000 reagents; below is a random part of those with a known target gene and a result. Over the whole deposit, 429 (2%) were called active. 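Values are raw and not normalised between plates; calls rest on per-plate z-scores that were not deposited.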 A number with no mark means an inactive call. Not stated in the record: the amount of reagent, the time to read-out.

Aim: 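Identify essential fly genes by loss of cell viability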 (primary screen)
Cells: Drosophila Kc and S2R+ cells
Reagent: long dsRNA against Drosophila genes
Measured: 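Raw, unnormalised count of remaining cells in each well; per-plate z-scores of cell number underlie the calls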
Reading the numbers: Kc cell number and S2R+ cell number: higher = more cells remaining
Active means: 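Active when the per-plate z-score of cell number is 3 or more in the direction of fewer cells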

target	DRSC id	Kc cell number, rep 1	Kc cell number, rep 2	S2R+ cell number, rep 1	S2R+ cell number, rep 2
RtcB (GeneID 35220)	DRSC03280	1.56e6	1.66e6	1.37e6	4.18e5
CG13557 (GeneID 37717)	DRSC04195	1.74e6	1.84e6	1.23e6	1.33e6
myd (GeneID 42303)	DRSC14762	1.52e6 (active)	1.76e6	7.24e5	8.02e5
myd (GeneID 42303)	DRSC15512	1.41e6	1.36e6	1.06e6	1.18e6
Rnf146 (GeneID 40144)	DRSC11045	1.70e6	1.74e6	1.35e6	1.48e6
CG1468 (GeneID 31920)	DRSC17946	6.22e5		8.53e5	
ENGase (GeneID 32726)	DRSC19953	1.47e6	1.49e6	1.03e6	1.15e6
Vha16-3 (GeneID 317846)	DRSC10872	1.25e6	1.36e6	1.28e6	1.39e6
CG10654 (GeneID 39428)	DRSC09767	1.48e6	1.47e6	1.23e6	1.30e6
CG12507 (GeneID 32580)	DRSC19463	1.64e6	1.65e6	1.17e6	1.27e6
CG12084 (GeneID 192509)	DRSC08247	1.43e6	1.53e6	1.15e6	1.03e6
cwo (GeneID 44669)	DRSC17072	1.60e6	1.62e6	9.68e5	1.01e6
CG42552 (retired record) (GeneID 8674047)	DRSC11512	1.51e6	1.62e6	1.20e6	1.35e6
TwdlC (GeneID 43245)	DRSC14749	1.58e6	1.60e6	1.00e6	1.14e6
LManIII (GeneID 34203)	DRSC03221	1.64e6	1.58e6	1.17e6	1.25e6
CG7296 (GeneID 34469)	DRSC03042	1.65e6	1.66e6	1.10e6	1.19e6
Obp59a (GeneID 37605)	DRSC04160	1.50e6	1.56e6	1.26e6	1.30e6
norpA (GeneID 31376)	DRSC18806	5.26e5		7.73e5	
Or47a (GeneID 36187)	DRSC07491	1.54e6	1.58e6	1.22e6	1.30e6
Xpd (GeneID 37414)	DRSC04666	1.56e6	1.61e6	1.17e6	1.25e6
Cp16 (GeneID 39001)	DRSC11119	1.25e6	1.37e6	1.19e6	1.26e6
crp (GeneID 34956)	DRSC03515	1.72e6	1.78e6	1.01e6	1.19e6
IP3K2 (GeneID 32285)	DRSC19500	1.54e6	1.47e6	1.06e6	1.13e6
IP3K2 (GeneID 32285)	DRSC19747	1.63e6	1.57e6	1.08e6	1.21e6
